System: obesity induced by high fat diet
Test: Body weight and food consumption of rats on high fat diet, 8 weeks of dieting
Format: in vivo, Sprague-Dawley white male rat
Conditions: high fat diet + 0.2% of each substance in diet, n = 12
Text: In order to verify the effects of the present composition to the metabolism of lipid in the fat animals induced by dieting high fat diet, Sprague-Dawley white male rat model was selected. In order to verify the effects of genistein, diadzein and glycitein to the obesity induced from high fat diet, rats of 6 weeks old were adapted for a week and assigned 12 rats for each experimental group. Experimental groups are as follows: (1) normal fat diet; (2) high fat diet; (3) high fat diet+genistein 0.2%; (4) high fat diet+L-carnitine 0.2%; (5) high fat diet+genistein 0.2%+L-carnitine 0.2%; (6) high fat diet+diadzein 0.2%; (7) high fat diet+diadzein 0.2%+L-carnitine 0.2%; (8) high fat diet+glycitein 0.2%; and (9) high fat diet+glycitein 0.2%+L-carnitine 0.2%, and the rats were […] for 8 weeks. […] The amount of diet consumed and body weight was measure three times per week during dieting.

Compound | Amount of food consumed [g/day]
C[N+](C)(C)CC(O)CC(=O)[O-] [L-carnitine, β-hydroxy-γ-trimethylammonium butyric acid] | 25.7 ± 9.1
O=c1c(-c2ccc(O)cc2)coc2cc(O)ccc12 [diadzein] | 26.8 ± 4.1
O=c1c(-c2ccc(O)cc2)coc2cc(O)cc(O)c12 [genistein] | 26.5 ± 3.8
COc1cc2c(=O)c(-c3ccc(O)cc3)coc2cc1O [glycitein] | 26.7 ± 4.7
